Earlier results as cited in US20210379148A1, “REGULATING MUSCLE PHYSIOLOGY AND ENERGY METABOLISM USING CRYM” (University Of Maryland, Baltimore, priority 2020, published 2021).
Where two headings read alike, the source gives them in different places. For at least one compound, name, drawing or mass did not settle the structure.

Tested on: CRYM mRNA

For `CCC1(c2ccccc2)C(=O)NC(=O)NC1=O` [Phenobarbital], the “expression of CRYM mRNA” value (NR1I3 protein affects the reaction) is listed as “increased expression of CRYM mRNA]” and the “expression of CRYM mRNA” value (chemical alone) is listed as “Phenobarbital results in increased expression of CRYM”.
